Some of the results follow.
Columns and labels:
Test in all cases: log2 fold change, soluble protein after heating vs DMSO (PISA); higher = thermal stabilisation; K562 lysate, 10 uM; active = over 0.2 and 3.5 SD of the protein, either way, in both replicates (recomputed)
[1] = compound: CN1CC[C@H](c2c(O)cc(O)c3c(=O)cc(-c4ccccc4Cl)oc23)[C@H](O)C1 [alvocidib]
In short: (§1)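 To prepare the extract, K562 pellets were dounce-homogenised in PBS pH 7.4 with 1 mM MgCl2, giving crude material at 1 mg/mL protein. This was treated with 10 μM compound for 30 min, then heated in aliquots for 3 min over 48°C-58°C before pooling and addition of NP-40 to 0.5% at 4°C. Centrifugation at 21,000xg for 90 min left soluble protein in the supernatant, which TMTpro 16plex LC-MS/MS quantified with equalised channel sums. Results are log-two fold changes in thermal stability compared with solvent controls, from duplicates.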

By UniProt entry, the sequences of proteins in these tests, tags left out. Where a name states a change or a piece, a line headed by the entry shows the natural chain unless it says otherwise.
UniProt Q969H6: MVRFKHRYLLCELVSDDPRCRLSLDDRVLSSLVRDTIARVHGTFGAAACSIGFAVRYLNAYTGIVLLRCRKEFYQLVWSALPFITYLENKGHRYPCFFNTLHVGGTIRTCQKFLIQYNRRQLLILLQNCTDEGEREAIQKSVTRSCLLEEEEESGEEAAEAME
UniProt Q9Y244: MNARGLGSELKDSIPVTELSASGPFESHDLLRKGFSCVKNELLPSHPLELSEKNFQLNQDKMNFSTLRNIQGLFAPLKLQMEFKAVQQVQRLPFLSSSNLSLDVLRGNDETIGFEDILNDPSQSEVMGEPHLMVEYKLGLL
UniProt O75817: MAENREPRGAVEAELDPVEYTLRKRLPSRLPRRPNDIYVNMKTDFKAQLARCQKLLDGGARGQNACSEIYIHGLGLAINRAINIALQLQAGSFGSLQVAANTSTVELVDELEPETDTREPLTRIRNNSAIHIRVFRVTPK
UniProt Q99541: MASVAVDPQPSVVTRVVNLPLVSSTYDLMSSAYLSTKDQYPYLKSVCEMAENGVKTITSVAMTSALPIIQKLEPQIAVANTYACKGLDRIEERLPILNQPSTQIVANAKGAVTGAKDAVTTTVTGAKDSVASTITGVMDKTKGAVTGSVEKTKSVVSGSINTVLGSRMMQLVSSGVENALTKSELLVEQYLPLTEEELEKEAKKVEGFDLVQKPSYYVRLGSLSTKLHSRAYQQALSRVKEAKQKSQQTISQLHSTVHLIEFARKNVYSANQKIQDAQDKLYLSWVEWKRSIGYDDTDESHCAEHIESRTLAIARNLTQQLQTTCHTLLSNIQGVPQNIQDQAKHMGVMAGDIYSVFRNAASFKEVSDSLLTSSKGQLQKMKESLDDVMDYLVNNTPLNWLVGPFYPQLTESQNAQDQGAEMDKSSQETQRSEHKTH
UniProt Q9P215: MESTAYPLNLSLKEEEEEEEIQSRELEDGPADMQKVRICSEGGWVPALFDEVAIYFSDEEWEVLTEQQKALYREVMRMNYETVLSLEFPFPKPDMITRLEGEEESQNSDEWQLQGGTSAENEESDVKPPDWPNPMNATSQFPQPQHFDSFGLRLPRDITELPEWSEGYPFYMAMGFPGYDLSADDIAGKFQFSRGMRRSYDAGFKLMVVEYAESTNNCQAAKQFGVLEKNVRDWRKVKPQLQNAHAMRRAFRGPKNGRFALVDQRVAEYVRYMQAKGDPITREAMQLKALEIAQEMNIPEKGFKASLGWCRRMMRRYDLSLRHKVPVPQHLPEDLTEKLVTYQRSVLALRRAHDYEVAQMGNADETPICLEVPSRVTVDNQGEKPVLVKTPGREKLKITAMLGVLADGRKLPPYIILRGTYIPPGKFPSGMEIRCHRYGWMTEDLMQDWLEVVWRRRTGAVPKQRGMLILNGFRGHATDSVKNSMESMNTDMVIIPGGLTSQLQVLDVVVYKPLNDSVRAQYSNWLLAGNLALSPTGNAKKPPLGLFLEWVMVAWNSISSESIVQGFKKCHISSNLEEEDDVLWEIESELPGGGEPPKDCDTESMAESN
UniProt Q15181: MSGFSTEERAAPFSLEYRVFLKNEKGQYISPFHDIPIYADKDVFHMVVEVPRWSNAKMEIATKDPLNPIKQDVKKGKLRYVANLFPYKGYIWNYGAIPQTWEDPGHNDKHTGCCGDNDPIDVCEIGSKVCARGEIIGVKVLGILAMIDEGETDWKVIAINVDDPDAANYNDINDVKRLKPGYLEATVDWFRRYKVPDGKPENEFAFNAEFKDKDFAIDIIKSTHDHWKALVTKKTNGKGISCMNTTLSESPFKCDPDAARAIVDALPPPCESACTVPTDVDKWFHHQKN
UniProt Q8TD55: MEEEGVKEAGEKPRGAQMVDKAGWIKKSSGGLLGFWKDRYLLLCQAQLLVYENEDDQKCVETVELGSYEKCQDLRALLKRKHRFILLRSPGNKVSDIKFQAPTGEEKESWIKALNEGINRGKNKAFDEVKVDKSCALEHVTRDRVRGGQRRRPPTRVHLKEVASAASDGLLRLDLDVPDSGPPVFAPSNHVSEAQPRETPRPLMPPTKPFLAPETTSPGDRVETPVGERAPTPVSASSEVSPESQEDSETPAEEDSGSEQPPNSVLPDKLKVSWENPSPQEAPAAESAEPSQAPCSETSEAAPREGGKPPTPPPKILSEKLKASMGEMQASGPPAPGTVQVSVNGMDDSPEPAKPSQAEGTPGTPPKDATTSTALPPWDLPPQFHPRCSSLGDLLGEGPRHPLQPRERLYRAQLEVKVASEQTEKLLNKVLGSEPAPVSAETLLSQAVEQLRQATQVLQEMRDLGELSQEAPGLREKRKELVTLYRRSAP
UniProt P0DPB6, whole entry, looked up: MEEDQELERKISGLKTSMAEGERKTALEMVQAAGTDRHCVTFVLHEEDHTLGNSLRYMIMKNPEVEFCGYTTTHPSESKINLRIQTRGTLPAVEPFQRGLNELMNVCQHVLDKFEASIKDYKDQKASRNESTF
UniProt Q8N490: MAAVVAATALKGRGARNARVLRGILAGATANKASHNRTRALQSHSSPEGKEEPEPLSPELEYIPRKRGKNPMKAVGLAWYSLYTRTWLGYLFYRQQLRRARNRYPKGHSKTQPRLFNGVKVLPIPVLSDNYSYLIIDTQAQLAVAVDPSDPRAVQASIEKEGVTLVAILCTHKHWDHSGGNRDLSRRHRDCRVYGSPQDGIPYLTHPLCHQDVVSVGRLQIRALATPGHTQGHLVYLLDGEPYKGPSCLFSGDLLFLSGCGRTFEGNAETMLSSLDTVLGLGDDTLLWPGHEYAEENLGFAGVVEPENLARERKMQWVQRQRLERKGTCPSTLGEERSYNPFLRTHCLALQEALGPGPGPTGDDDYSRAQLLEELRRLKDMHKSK
UniProt P54278: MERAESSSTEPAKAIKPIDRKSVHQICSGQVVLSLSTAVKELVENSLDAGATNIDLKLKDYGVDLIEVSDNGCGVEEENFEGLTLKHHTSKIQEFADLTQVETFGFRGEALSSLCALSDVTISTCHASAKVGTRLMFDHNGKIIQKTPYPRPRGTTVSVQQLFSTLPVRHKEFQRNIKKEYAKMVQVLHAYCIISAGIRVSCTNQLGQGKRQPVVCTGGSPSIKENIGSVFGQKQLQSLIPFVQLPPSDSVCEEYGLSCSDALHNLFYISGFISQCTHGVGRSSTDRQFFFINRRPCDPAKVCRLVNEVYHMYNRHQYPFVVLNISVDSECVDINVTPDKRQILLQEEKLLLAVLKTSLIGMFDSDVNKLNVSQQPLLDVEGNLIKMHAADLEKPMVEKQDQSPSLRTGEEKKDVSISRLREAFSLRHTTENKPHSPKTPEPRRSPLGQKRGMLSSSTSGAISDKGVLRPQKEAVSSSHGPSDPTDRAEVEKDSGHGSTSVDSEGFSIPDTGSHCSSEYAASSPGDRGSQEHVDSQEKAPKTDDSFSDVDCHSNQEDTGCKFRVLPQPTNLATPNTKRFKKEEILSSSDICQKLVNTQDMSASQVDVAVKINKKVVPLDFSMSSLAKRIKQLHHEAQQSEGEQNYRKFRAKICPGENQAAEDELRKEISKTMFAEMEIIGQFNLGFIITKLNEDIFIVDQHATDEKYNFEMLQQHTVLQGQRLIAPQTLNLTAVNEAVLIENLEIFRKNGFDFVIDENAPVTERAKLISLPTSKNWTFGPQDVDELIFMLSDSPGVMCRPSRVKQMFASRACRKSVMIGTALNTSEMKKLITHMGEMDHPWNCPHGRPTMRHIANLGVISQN
UniProt P55058, whole entry, looked up: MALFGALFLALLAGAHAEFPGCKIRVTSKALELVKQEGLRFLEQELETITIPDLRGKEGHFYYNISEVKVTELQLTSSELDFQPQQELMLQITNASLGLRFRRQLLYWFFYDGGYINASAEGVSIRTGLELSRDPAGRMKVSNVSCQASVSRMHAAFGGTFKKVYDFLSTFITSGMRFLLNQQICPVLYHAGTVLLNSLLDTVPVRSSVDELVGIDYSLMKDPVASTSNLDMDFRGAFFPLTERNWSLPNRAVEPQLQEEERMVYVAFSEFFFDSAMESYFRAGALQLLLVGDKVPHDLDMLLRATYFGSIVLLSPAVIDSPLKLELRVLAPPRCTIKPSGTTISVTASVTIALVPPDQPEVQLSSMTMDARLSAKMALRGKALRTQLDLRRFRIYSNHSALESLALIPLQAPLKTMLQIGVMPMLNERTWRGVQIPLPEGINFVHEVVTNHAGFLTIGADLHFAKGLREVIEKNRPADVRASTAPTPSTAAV
UniProt Q06203, whole entry, looked up: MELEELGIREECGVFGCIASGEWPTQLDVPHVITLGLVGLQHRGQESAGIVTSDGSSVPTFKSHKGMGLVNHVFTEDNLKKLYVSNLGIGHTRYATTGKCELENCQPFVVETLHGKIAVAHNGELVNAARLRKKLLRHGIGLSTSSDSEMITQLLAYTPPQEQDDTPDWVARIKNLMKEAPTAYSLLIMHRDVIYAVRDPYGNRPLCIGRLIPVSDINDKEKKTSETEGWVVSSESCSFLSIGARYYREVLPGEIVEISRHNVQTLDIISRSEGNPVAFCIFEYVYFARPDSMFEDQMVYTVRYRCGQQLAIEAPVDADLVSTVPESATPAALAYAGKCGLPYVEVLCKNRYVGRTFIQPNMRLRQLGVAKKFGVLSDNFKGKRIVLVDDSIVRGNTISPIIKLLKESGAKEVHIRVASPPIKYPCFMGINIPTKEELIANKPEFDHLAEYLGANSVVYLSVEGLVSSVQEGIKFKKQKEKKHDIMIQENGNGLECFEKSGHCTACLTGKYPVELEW
UniProt O75145: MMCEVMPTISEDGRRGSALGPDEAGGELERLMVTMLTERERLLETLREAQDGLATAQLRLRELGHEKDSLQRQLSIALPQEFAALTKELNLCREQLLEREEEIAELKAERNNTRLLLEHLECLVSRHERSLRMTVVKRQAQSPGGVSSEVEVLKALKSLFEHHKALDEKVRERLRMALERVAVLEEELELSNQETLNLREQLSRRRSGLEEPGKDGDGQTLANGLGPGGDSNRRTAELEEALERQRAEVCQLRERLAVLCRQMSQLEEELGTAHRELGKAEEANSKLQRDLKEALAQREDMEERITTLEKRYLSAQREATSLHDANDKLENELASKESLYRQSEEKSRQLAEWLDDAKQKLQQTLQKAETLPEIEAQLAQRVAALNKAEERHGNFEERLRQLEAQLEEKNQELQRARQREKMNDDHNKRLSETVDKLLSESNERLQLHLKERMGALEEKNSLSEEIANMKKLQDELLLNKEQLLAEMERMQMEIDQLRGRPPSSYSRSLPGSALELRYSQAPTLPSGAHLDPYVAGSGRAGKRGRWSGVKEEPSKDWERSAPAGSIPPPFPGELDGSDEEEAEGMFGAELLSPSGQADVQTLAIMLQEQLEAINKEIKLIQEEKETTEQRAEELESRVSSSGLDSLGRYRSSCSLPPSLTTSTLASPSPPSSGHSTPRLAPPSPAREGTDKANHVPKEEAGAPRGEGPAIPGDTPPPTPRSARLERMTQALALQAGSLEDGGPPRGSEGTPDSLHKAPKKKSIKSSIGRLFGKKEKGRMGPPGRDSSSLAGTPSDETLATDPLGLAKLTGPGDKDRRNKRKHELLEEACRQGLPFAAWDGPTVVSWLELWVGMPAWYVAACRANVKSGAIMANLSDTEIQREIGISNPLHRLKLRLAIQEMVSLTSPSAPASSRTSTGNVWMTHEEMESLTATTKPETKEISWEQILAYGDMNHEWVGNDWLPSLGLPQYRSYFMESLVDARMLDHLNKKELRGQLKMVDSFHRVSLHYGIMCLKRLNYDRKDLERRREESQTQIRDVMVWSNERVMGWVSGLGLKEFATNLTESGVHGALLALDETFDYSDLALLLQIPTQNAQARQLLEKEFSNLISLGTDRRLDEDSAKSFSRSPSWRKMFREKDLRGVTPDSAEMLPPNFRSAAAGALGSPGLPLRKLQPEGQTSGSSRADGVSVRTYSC
UniProt Q9H307: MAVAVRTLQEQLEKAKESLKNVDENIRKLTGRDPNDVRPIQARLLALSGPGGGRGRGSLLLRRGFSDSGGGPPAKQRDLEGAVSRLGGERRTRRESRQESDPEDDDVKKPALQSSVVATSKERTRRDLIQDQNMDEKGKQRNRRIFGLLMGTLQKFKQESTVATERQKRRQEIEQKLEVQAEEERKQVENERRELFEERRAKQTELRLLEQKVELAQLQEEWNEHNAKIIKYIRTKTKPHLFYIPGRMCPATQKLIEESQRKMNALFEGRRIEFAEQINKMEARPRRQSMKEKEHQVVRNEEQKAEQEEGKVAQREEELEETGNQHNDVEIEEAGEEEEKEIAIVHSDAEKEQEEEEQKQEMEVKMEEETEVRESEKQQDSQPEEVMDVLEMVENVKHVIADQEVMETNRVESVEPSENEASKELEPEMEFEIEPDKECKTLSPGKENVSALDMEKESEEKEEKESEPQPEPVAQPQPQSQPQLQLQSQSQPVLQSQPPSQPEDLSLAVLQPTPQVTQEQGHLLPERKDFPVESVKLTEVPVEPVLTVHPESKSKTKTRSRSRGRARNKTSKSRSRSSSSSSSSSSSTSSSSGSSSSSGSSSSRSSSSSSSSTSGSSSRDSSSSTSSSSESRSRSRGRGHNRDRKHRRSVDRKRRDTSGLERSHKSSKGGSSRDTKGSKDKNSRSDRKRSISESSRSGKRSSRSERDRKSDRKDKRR

[2] = compound: CN1CCc2c(c3ccccc3n2Cc2ccc(C(=O)NO)cc2)C1 [Tubastatin A]
In short: as §1

[3] = compound: CNC(=O)C1=CC=CC=C1NC2=NC(=NC=C2Cl)NC3=C(C=C(C=C3)N4CCOCC4)OC
In short: as §1

[4] = compound: CNC(=O)c1ccc(Nc2ncc(C(F)(F)F)c(NCc3nccnc3N(C)S(C)(=O)=O)n2)cc1 [defactinib]
In short: as §1

[5] = compound: CNc1nc(-c2ccc3c(N)n[nH]c3c2)cc(N2C[C@@H](C(=O)NC3CCCCC3)CC[C@H]2C)n1
In short: as §1

[6] = compound: COC(=O)N[C@@H](C)CNc1nccc(-c2cn(C(C)C)nc2-c2cc(Cl)cc(NS(C)(=O)=O)c2F)n1 [encorafenib]
In short: as §1

[7] = compound: COC(=O)[C@H](CCSC)NC(=O)C1=C(C=C(C=C1)NC[C@H](CS)N)C2=CC=CC=C2
In short: as §1

[8] = compound: COc1cc(Nc2ncc3c(n2)-c2ccc(Cl)cc2C(c2c(F)cccc2OC)=NC3)ccc1C(=O)O [alisertib]
In short: as §1

[9] = compound: COc1cc2nc(-c3cc(F)ccc3O)nc(N[C@@H]3CNC[C@H]3C(C)(C)O)c2cc1OC
In short: as §1

[10] = compound: COc1cc2ncnc(Nc3ccc(F)c(Cl)c3)c2cc1OCCCN1CCOCC1 [gefitinib]
In short: as §1

Measured: log2 fold change

POP5 (UniProt Q969H6)
inactive: [1] 0.02 | [2] -0.001 | [3] 0.008 | [4] -0.039 | [5] 0.033 | [6] 0.038 | [7] -0.087 | [8] -0.051 | [9] 0.018 | [10] -0.002

PLXNB2 (UniProt O15031)
inactive: [1] 0 | [2] 0.015 | [3] 0.009 | [4] 0.002 | [5] 0.027 | [6] 0.004 | [7] -0.107 | [8] 0.017 | [9] 0.054 | [10] 0.016

POMP (UniProt Q9Y244)
inactive: [1] 0.072 | [2] -0.061 | [3] 0.035 | [4] 0.024 | [5] -0.03 | [6] 0.074 | [7] -0.002 | [8] -0.013 | [9] -0.033 | [10] -0.093

POP7 (UniProt O75817)
inactive: [1] -0.029 | [2] 0.173 | [3] 0.007 | [4] 0.024 | [5] 0 | [6] -0.037 | [7] -0.014 | [8] 0.142 | [9] 0.018 | [10] -0.287

POLR2F (UniProt P61218)
inactive: [1] 0.272 | [2] -0.07 | [3] 0.031 | [4] 0.085 | [5] 0.2 | [6] -0.036 | [7] -0.02 | [8] 0.065 | [9] 0.003 | [10] -0.097

POTEF (UniProt A5A3E0)
inactive: [1] -0.002 | [2] -0.018 | [3] 0.066 | [4] 0.041 | [5] -0.001 | [6] 0.005 | [7] 0.028 | [8] -0.076 | [9] 0.014 | [10] -0.026

POLR3K (UniProt Q9Y2Y1)
inactive: [1] 0.04 | [2] -0.015 | [3] 0.007 | [4] -0.018 | [5] 0.187 | [6] 0 | [7] -0.146 | [8] 0.003 | [9] 0.093 | [10] -0.036

PNO1 (UniProt Q9NRX1)
inactive: [1] 0.019 | [2] -0.018 | [3] 0.022 | [4] -0.019 | [5] 0.016 | [6] 0.007 | [7] 0.096 | [8] 0.015 | [9] 0.004 | [10] -0.01

PLIN2 (UniProt Q99541)
inactive: [1] -0.008 | [2] -0.107 | [3] -0.014 | [4] 0.049 | [5] 0.002 | [6] 0.061 | [7] -0.107 | [8] 0.044 | [9] -0.071 | [10] 0.104

POGK (UniProt Q9P215)
inactive: [1] -0.015 | [2] -0.011 | [3] 0.001 | [4] 0.059 | [5] -0.02 | [6] -0.052 | [7] 0.028 | [8] 0.071 | [9] -0.012 | [10] -0.013

PPA1 (UniProt Q15181)
inactive: [1] 0.05 | [2] 0.048 | [3] -0.025 | [4] 0.004 | [5] 0.018 | [6] -0.025 | [7] -0.005 | [8] 0.009 | [9] 0.01 | [10] -0.053

PLOD3 (UniProt O60568)
inactive: [1] -0.011 | [2] 0.001 | [3] 0.005 | [4] 0.006 | [5] -0.132 | [6] 0.062 | [7] -0.009 | [8] 0.01 | [9] 0.008 | [10] -0.004

PLS3 (UniProt P13797)
inactive: [1] -0.099 | [2] 0.023 | [3] 0.019 | [4] -0.033 | [5] 0.051 | [6] -0.011 | [7] 0.004 | [8] 0.004 | [9] 0.019 | [10] -0.004

POLR3F (UniProt Q9H1D9)
inactive: [1] -0.016 | [2] 0.014 | [3] -0.013 | [4] -0.015 | [5] 0.03 | [6] -0.002 | [7] -0.023 | [8] -0.009 | [9] -0.002 | [10] 0.003

PLEKHO2 (UniProt Q8TD55)
inactive: [1] -0.067 | [2] -0.228 | [3] 0.281 | [4] -0.001 | [5] -0.106 | [6] 0.007 | [7] 0.054 | [8] -0.004 | [9] 0 | [10] 0.043

POLR1D (UniProt P0DPB6)
inactive: [1] -0.016 | [2] -0.071 | [3] -0.018 | [4] 0.013 | [5] 0.042 | [6] 0.01 | [7] 0.075 | [8] -0.034 | [9] -0.026 | [10] -0.037

PNKP (UniProt Q96T60)
inactive: [1] -0.06 | [2] -0.04 | [3] 0.007 | [4] 0.068 | [5] 0.05 | [6] -0.008 | [7] 0.131 | [8] 0.023 | [9] 0.054 | [10] 0.048

PNKD isoform 2 (UniProt Q8N490)
inactive: [1] 0.02 | [2] -0.021 | [3] 0.031 | [4] 0.002 | [5] -0.022 | [6] 0 | [7] 0.044 | [8] -0.053 | [9] 0.039 | [10] 0.057

POM121 (UniProt Q96HA1)
inactive: [1] -0.02 | [2] 0.087 | [3] 0.08 | [4] -0.029 | [5] 0.069 | [6] 0.082 | [7] -0.014 | [9] 0.051

POC5 (UniProt Q8NA72)
inactive: [1] -0.048 | [2] -0.046 | [3] 0.054 | [4] 0.154 | [5] 0.06 | [6] 0 | [7] -0.048 | [8] -0.018 | [9] -0.009 | [10] 0.042

Retrieved one by one from the entries so far, 2 records:
PNKD isoform 2 (UniProt Q8N490)
inactive: [1] 0.02 | [2] -0.021 | [3] 0.031 | [4] 0.002 | [5] -0.022 | [6] 0 | [7] 0.044 | [8] -0.053 | [9] 0.039 | [10] 0.057

POLR1D (UniProt P0DPB6)
inactive: [1] -0.016 | [2] -0.071 | [3] -0.018 | [4] 0.013 | [5] 0.042 | [6] 0.01 | [7] 0.075 | [8] -0.034 | [9] -0.026 | [10] -0.037

Next part.

PMS2 (UniProt P54278)
inactive: [1] -0.001 | [2] -0.129 | [3] 0.03 | [4] 0.021 | [5] 0.103 | [6] 0.038 | [7] 0.089 | [8] 0.009 | [9] 0.02 | [10] 0.024

PLTP (UniProt P55058)
inactive: [1] -0.184 | [2] -0.188 | [3] -0.102 | [4] -0.318 | [5] -0.11 | [8] -0.061 | [10] -0.013

POLR2A, A0A590UJN4
inactive: [1] -0.012 | [2] 0.007 | [3] 0.017 | [4] -0.019 | [5] -0.042 | [6] 0.002 | [7] 0.073 | [8] -0.013 | [9] 0.016 | [10] -0.003

POGLUT2 (UniProt Q6UW63)
inactive: [1] -0.026 | [2] 0.006 | [3] 0.031 | [4] -0.018 | [5] 0.006 | [6] 0.04 | [7] 0.016 | [8] -0.006 | [9] 0.022 | [10] 0.06

POLR2E (UniProt P19388)
inactive: [1] -0.003 | [2] 0.004 | [3] 0.002 | [4] 0.019 | [5] 0.033 | [6] 0.007 | [7] 0.11 | [8] 0.011 | [9] 0.016 | [10] -0.03

PPAT (UniProt Q06203)
inactive: [1] 0.006 | [2] 0.017 | [3] 0.086 | [4] -0.032 | [5] 0.029 | [6] -0.003 | [7] -0.023 | [8] -0.024 | [9] 0 | [10] -0.018

PPFIA3 (UniProt O75145)
inactive: [1] 0.011 | [2] -0.005 | [3] -0.001 | [4] 0.109 | [5] 0.156 | [8] -0.03 | [9] 0.041 | [10] 0.056

PMM1 (UniProt Q92871)
inactive: [1] -0.129 | [2] -0.013 | [3] -0.015 | [4] -0.011 | [5] -0.085 | [6] -0.008 | [7] 0.048 | [8] 0.025 | [10] -0.041

PNN (UniProt Q9H307)
inactive: [1] -0.017 | [2] 0.08 | [3] 0.041 | [4] 0 | [5] 0.11 | [6] 0.055 | [7] 0.046 | [8] 0.003 | [9] 0.013 | [10] 0.001
